Here are results for one substance from article PMC11810782.

Protein sequences, listed by entry. Tags and fused reporters are not part of them.
UniProt P08247: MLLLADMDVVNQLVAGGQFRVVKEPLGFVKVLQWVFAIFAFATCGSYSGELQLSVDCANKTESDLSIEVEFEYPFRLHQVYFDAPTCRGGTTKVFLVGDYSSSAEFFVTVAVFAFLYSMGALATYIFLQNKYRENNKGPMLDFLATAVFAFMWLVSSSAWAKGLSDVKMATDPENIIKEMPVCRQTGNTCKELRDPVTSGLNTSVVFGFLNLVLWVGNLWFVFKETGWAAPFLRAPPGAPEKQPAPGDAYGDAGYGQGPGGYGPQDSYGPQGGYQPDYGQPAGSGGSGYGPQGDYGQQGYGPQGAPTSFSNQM
UniProt P63027: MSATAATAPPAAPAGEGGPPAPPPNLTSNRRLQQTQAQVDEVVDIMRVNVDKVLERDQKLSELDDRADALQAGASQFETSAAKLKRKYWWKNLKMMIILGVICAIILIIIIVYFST

This experiment has as its target Flag-tagged synaptophysin (Syp-1xFLAG) (UniProt P08247). Nature of the experiment: co-IP; Syp-1xFLAG and Strep-VAMP2 co-expressed; membrane fraction solubilised with 1.5% ChloroSMA80 into native nanodiscs at 4 °C; discs purified on anti-FLAG beads at 4 °C, eluted with 3x FLAG peptide; Coomassie gel and western blots of the eluate.

Results are given in words; binding and its absence hold for the method and conditions named. In cells and extracts the contact can be indirect. Some results given as binding are weak or reduced against the parent protein; the word gives no strength.

“Strep-tagged VAMP2 (from UniProt P63027 1-116)”: the binding result was “binds”.
